In paper PMC10704435:
These are yes or no findings as the source states them, for the method shown. In cells and extracts the contact can be indirect. Some binding calls cover weakened binding; strength is not graded here.

Chains of the proteins cited; added tags and fusions are not shown. Residues count along the entry.
UniProt Q99523, residues 78-831: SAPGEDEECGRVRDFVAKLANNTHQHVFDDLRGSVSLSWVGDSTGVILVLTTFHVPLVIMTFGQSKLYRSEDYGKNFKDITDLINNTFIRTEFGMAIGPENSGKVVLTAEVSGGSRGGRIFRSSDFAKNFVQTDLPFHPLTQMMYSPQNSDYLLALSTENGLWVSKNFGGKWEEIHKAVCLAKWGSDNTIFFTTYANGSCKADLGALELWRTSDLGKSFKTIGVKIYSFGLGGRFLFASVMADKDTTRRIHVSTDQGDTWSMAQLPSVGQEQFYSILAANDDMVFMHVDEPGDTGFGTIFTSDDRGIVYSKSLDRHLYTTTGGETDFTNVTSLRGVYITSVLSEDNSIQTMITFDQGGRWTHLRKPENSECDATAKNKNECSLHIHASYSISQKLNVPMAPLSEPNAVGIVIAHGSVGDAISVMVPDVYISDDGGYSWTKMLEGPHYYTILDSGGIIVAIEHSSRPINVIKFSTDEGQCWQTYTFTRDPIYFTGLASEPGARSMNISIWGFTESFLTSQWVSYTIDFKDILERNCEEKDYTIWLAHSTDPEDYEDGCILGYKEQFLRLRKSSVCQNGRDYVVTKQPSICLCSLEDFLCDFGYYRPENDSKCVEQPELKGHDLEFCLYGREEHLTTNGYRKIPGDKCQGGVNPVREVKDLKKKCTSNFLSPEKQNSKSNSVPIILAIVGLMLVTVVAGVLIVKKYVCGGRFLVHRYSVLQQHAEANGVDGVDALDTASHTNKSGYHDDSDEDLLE
UniProt P42857: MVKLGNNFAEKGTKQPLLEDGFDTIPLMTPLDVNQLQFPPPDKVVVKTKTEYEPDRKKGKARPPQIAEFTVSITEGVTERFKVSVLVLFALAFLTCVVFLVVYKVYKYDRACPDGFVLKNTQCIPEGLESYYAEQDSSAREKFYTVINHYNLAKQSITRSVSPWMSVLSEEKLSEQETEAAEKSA
UniProt Q9Y328: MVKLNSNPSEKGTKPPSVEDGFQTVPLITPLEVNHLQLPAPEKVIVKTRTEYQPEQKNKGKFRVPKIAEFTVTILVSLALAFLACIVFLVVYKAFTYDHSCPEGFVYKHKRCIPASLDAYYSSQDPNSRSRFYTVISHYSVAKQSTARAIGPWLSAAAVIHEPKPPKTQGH

Columns and labels:
[1] = target: human sortilin in pcDNA3.1 (human) (UniProt Q99523); test: co-IP; transiently transfected HEK293MSR cells, lysis in 50 mM Tris-HCl pH 7.4, 150 mM NaCl, 5 mM CHAPS, 4 °C; IP with rabbit anti-sortilin (ab16640), rabbit anti-NSG1 (LS-B14123) or control rabbit IgG, protein A-agarose; Western blot
[2] = target: human NSG1 in pcDNA3 (human) (UniProt P42857); test: as above

binding [1] | binding [2] | Substance
binds |  | human NSG1 in pcDNA3 (from UniProt P42857 1-185)
binds |  | human NSG2 in pcDNA3.1(+) (from UniProt Q9Y328 1-171)
 | binds | human sortilin in pcDNA3.1 (from UniProt Q99523 78-831) (receptor)
